PubChem BioAssay AID1224826 | NIAID – 2016
This is an unselected part of about 17,000 reagents. In the full data, about 1,110 (6.6%) got an active call. 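Active means lowered or raised reporter signal; replicate intensities are raw and not normalised per plate.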

Screen: 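Knock-downs that raise or lower Tnf reporter signal after endotoxin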 (primary screen)
Cell system: RAW264.7 G9 macrophages from mouse bearing reporters for p65 (GFP) and the Tnf promoter (mCherry)
Reagent: siRNA pool against mouse genes, 100 nM
Time to read-out: 16 h of LPS stimulation, after 2 days of siRNA transfection
Treatment: bacterial lipopolysaccharide (Salmonella minnesota R595), 10 ng/ml
Measured: 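Imaged Tnf reporter mCherry in nuclei, minus background, normalised per plate to the median and expressed as robust z-scores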
Scale: Tnf reporter robust z-score: higher = stronger Tnf promoter reporter signal after LPS; Tnf reporter intensity: higher = stronger Tnf promoter reporter signal
Call rule: 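a well counts as active at a score of -1.3 or below (Tlr4 knock-down control median) or above 3 (raised signal); controls and wells holding fewer than 50 cells are excluded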
Calls: active = Tnf reporter clearly lowered or raised; inactive = no clear change in Tnf reporter

no.	gene symbol	PubChem SID	Tnf reporter robust z-score	fewer than 50 cells in well	Tnf reporter intensity, replicate 1	Tnf reporter intensity, replicate 2	call
1	Nid2 (GeneID 18074)	SID315468175	-1.24	enough cells in well	126	117	inactive
2	Usp50 (GeneID 75083)	SID315475073	0.2	enough cells in well	221	71.4	inactive
3	2010204K13Rik (GeneID 68355)	SID315473515		fewer than 50 cells per well; well left out of calls	152	106	inactive
4	Bbs1 (GeneID 52028)	SID315470932	0.71	enough cells in well	166	220	inactive
5	Ifi35 (GeneID 70110)	SID315473978	-0.84	enough cells in well	181	126	inactive
6	Nxt1 (GeneID 56488)	SID315471568	0.82	enough cells in well	330	215	inactive
7	Sema5b (GeneID 20357)	SID315469182	3.4	enough cells in well	214	125	active
8	Or4c12 (GeneID 258338)	SID315480027	2.33	enough cells in well	354	193	inactive
9	Tuba3b (GeneID 22147)	SID315469875	-0.4	enough cells in well	167	236	inactive
10	Ctrl (GeneID 109660)	SID315476835	0.12	enough cells in well	244	212	inactive
11	Grtp1 (GeneID 66790)	SID315472641	0.35	enough cells in well	282	179	inactive
12	Calr3 (GeneID 73316)	SID315474707	0.7	enough cells in well	209	210	inactive
13	1110059G10Rik (GeneID 66202)	SID315472286	-0.05	enough cells in well	242	80.1	inactive
14	Trim14 (GeneID 74735)	SID315475033	0.18	enough cells in well	286	193	inactive
15	Nr6a1 (GeneID 14536)	SID315466858	-0.91	enough cells in well	232	75.5	inactive
16	Gmppb (GeneID 331026)	SID315481633	0.89	enough cells in well	417	147	inactive
17	Aebp2 (GeneID 11569)	SID315465338	-1.11	enough cells in well	117	128	inactive
18	Plec (GeneID 18810)	SID315468583	-0.26	enough cells in well	211	187	inactive
19	Ubfd1 (GeneID 28018)	SID315470658	-0.89	enough cells in well	151	172	inactive
20	Il1f10 (GeneID 215274)	SID315477919	0.25	enough cells in well	216	81.2	inactive
21	Pank3 (GeneID 211347)	SID315477678	-0.18	enough cells in well	181	133	inactive
22	Arhgef9 (GeneID 236915)	SID315479317	-0.69	enough cells in well	91	173	inactive
23	Caln1 (GeneID 140904)	SID315477157	-0.03	enough cells in well	158	181	inactive
24	Atp7a (GeneID 11977)	SID315465567	0	enough cells in well	102	222	inactive
25	Or5p70 (GeneID 258361)	SID315480049		fewer than 50 cells per well; well left out of calls	47.3	78	inactive
26	Akap13 (GeneID 75547)	SID315475141	0.06	enough cells in well	202	129	inactive
27	Plac8 (GeneID 231507)	SID315478898	2.63	enough cells in well	249	188	inactive
28	Bad (GeneID 12015)	SID315465592	0.3	enough cells in well	167	168	inactive
29	Itgb2 (GeneID 16414)	SID315467517	0.99	enough cells in well	299	216	inactive
30	Prnp (GeneID 19122)	SID315468710	0.89	enough cells in well	280	285	inactive
31	Hey2 (GeneID 15214)	SID315467188	-0.43	enough cells in well	273	163	inactive
32	Cks2 (GeneID 66197)	SID315472282	0.83	enough cells in well	242	209	inactive
33	Pdlim3 (GeneID 53318)	SID315471038	0.5	enough cells in well	179	150	inactive
34	Or6p1 (GeneID 258756)	SID315480405	0.01	enough cells in well	185	96.4	inactive
35	Pkhd1 (GeneID 241035)	SID315479539	-0.13	enough cells in well	249	173	inactive
36	Smcr8 (GeneID 237782)	SID315479366		fewer than 50 cells per well; well left out of calls	67.9	40.5	inactive
37	Lap3 (GeneID 66988)	SID315472758	-0.13	enough cells in well	213	155	inactive
38	D830044D21Rik (GeneID 320621)	SID315481354	0.81	enough cells in well	186	193	inactive
39	Ube2s (GeneID 77891)	SID315475520	-0.51	enough cells in well	183	199	inactive
40	Smarcd1 (GeneID 83797)	SID315475869	-0.02	enough cells in well	229	254	inactive
41	4632434I11RIK	SID315482010	-0.02	enough cells in well	180	63.4	inactive
42	Igf2 (GeneID 16002)	SID315467405	-0.31	enough cells in well	236	149	inactive
43	Vtn (GeneID 22370)	SID315470017	-0.46	enough cells in well	170	223	inactive
44	Zfp641 (GeneID 239652)	SID315479454	-0.86	enough cells in well	136	71.2	inactive
45	Cnbp (GeneID 12785)	SID315466024	-0.99	enough cells in well	200	105	inactive
46	Taf9 (GeneID 108143)	SID315476702	-0.37	enough cells in well	111	168	inactive
47	Taf9 (GeneID 108143)	SID315476703	1.33	enough cells in well	164	140	inactive
48	Itgb5 (GeneID 16419)	SID315467521	0.95	enough cells in well	318	197	inactive
49	Sri (GeneID 109552)	SID315476829	4.7	enough cells in well	250	266	active
50	Mill1 (GeneID 266815)	SID315480752	0.5	enough cells in well	230	164	inactive
51	Ece1 (GeneID 230857)	SID315478836	-0.19	enough cells in well	190	242	inactive
52	Agbl2 (GeneID 271813)	SID315480955	-0.22	enough cells in well	217	77.8	inactive
53	Plaur (GeneID 18793)	SID315468572	-0.75	enough cells in well	195	135	inactive
54	Cabp2 (GeneID 29866)	SID315470723	-0.82	enough cells in well	112	131	inactive
55	Lrrc56 (GeneID 70552)	SID315474077	0.09	enough cells in well	124	154	inactive
56	Spats2l (GeneID 67198)	SID315472893	0.18	enough cells in well	290	66.7	inactive
57	Scand1 (GeneID 19018)	SID315468649	-1.24	enough cells in well	60.8	40.3	inactive
58	Gigyf2 (GeneID 227331)	SID315478558	-0.51	enough cells in well	101	74.5	inactive

3 neighbouring records already listed:
no.	gene symbol	PubChem SID	Tnf reporter robust z-score	fewer than 50 cells in well	Tnf reporter intensity, replicate 1	Tnf reporter intensity, replicate 2	call
44	Zfp641 (GeneID 239652)	SID315479454	-0.86	enough cells in well	136	71.2	inactive
45	Cnbp (GeneID 12785)	SID315466024	-0.99	enough cells in well	200	105	inactive
46	Taf9 (GeneID 108143)	SID315476702	-0.37	enough cells in well	111	168	inactive
